{"source": "paper PMC12902297", "tested_on": "MBP-OsbHLH35 (Oryza sativa)", "test": "EMSA", "settings": "among strongest of the sites; EMSA: binding buffer 10 mM Tris-HCl pH 7.5, 50 mM KCl, 3.5 mM DTT, 0.25% Tween 20, 5% glycerol, 5 mM MgCl2; recombinant protein; protein details: MBP; label: FAM", "note": "For at least one entry, the source does not settle the construct or the ends of the probe."}
{"sequence": "GAGCACCCGCAATGGTAAAGTAATG (double strand) [BS1]", "values": [{"measurement": "binding result", "value": "binds"}]}
